In publication PMC3903133, “Single-molecule analysis reveals self assembly and nanoscale segregation of two distinct cavin subcomplexes on caveolae” (eLife, 2014):
No constants are given. Whether binding was seen depends on the method and setting. For some assays here: Binding seen in cells or lysates may run through a third protein. Some results given as binding are weak or reduced against the parent protein; the word gives no strength. For some assays here: Tags and fused reporters may be left off the sequences shown.

What was measured:
[1] = target: T1, cavin1-GFP (cell-free) (UniProt Q6NZI2); experiment: single-molecule two-colour fluorescence coincidence; co-expression in the Leishmania tarentolae cell-free system at DNA ratios from 100% GFP to 100% Cherry; >1000 bursts for each ratio
T1 sequence: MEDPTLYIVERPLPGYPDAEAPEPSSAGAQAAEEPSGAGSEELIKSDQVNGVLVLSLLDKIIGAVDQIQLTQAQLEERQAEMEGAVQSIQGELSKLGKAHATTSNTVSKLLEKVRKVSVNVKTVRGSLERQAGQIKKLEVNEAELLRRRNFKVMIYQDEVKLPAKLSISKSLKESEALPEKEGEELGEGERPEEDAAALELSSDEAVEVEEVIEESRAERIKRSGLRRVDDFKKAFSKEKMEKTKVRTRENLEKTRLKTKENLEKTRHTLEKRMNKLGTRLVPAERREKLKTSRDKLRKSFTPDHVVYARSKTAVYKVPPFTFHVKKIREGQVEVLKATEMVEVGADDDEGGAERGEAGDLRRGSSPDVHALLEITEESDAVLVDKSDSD

[2] = target: cavin2-Cherry-myc (cell-free) (UniProt O95810); experiment: as above
[3] = target: T1, cavin1-GFP (cell-free); experiment: AlphaScreen or HTRF; pairs co-expressed in the Leishmania cell-free system (3.5 hr, 27°C), serial dilutions in 25 mM HEPES, 50 mM NaCl; anti-Myc acceptor beads, biotin labeled GFP-nanotrap on streptavidin donor beads; room temperature
[4] = target: T2, cavin2-GFP (cell-free) (UniProt O95810); experiment: as above
T2 sequence: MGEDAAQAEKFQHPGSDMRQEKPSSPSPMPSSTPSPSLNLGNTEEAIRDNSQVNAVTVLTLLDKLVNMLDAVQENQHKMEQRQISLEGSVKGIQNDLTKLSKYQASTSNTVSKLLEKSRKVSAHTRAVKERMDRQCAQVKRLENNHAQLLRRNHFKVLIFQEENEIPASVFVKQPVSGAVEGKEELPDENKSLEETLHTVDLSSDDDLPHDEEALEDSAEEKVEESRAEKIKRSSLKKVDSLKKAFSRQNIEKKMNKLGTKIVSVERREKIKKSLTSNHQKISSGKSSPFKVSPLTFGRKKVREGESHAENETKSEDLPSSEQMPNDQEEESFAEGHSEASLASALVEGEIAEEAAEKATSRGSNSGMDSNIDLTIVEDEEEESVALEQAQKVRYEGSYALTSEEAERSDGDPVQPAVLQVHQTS

[5] = target: T3, cavin3-GFP (cell-free) (UniProt Q969G5); experiment: as above
T3 sequence: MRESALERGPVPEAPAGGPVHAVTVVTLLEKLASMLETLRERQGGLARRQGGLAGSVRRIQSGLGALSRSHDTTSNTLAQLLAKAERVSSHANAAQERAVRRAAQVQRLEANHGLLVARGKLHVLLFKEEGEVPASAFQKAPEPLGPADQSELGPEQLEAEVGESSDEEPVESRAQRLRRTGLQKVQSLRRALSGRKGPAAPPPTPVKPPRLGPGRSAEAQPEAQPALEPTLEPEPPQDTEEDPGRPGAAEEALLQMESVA

[6] = target: T2, cavin2-GFP (cell-free); experiment: single-molecule two-colour fluorescence coincidence; co-expression in the Leishmania tarentolae cell-free system at DNA ratios from 100% GFP to 100% Cherry; >1000 bursts for each ratio
[7] = target: cavin3-Cherry-myc (cell-free) (UniProt Q969G5); experiment: as above
[8] = target: T4, cavin1-GFP (UniProt Q6NZI2); experiment: pull-down; MDCK cells (endogenous cavin1 and CAV1) transfected with equal amounts of GFP and Cherry constructs; iso-osmotic or hypo-osmotic medium 20 min at 37°C; post nuclear supernatant on GFP Trap beads 30 min at 4°C; in-gel fluorescence
T4 sequence: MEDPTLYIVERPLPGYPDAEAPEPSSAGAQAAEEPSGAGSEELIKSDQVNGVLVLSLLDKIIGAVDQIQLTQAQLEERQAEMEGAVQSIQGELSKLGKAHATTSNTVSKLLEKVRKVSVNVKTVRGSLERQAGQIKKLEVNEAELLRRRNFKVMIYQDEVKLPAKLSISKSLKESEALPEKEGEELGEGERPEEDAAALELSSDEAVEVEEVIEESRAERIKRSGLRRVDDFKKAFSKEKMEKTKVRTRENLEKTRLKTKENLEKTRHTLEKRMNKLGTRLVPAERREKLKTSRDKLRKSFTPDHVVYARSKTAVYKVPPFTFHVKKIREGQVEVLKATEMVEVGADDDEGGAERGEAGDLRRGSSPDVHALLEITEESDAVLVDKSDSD

[9] = target: T4, cavin1-GFP; experiment: single-molecule two-colour fluorescence coincidence; MCF-7 cells (cavin and caveola-deficient, no CAV1) co-transfected with a GFP and a Cherry fusion; mechanically lysed, supernatant diluted to approximately 100 pM; confocal detection of freely diffusing proteins, room temperature
[10] = target: T5, cavin2-GFP (UniProt O95810); experiment: condition: only after hypo-osmotic treatment (20 min); pull-down; as the GFP Trap pull-down from MDCK cells, after hypo-osmotic treatment (20 min at 37°C)
T5 sequence: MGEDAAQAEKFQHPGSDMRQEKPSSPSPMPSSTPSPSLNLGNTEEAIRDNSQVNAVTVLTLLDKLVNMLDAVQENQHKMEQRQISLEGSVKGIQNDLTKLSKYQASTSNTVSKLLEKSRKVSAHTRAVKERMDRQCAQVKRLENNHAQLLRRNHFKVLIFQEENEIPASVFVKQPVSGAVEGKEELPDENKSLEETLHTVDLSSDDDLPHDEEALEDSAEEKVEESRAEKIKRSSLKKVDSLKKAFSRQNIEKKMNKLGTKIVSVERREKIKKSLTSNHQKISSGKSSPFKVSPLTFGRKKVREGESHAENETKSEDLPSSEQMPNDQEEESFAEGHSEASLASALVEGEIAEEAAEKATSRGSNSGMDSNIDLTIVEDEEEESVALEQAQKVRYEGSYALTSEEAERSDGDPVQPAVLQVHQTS

[11] = target: T5, cavin2-GFP; experiment: pull-down; MCF-7 cells transfected with equal amounts of GFP and Cherry constructs; post-nuclear supernatant on GFP Trap beads 30 min at 4°C, washed in PBS; in-gel fluorescence
[12] = target: T5, cavin2-GFP; experiment: single-molecule two-colour fluorescence coincidence; MCF-7 cells (cavin and caveola-deficient, no CAV1) co-transfected with a GFP and a Cherry fusion; mechanically lysed, supernatant diluted to approximately 100 pM; confocal detection of freely diffusing proteins, room temperature
[13] = target: cavin3-Cherry (UniProt Q969G5); experiment: as above

B1: cavin2-Cherry-myc (cell-free) (protein, UniProt O95810 1-425)
chain: MGEDAAQAEKFQHPGSDMRQEKPSSPSPMPSSTPSPSLNLGNTEEAIRDNSQVNAVTVLTLLDKLVNMLDAVQENQHKMEQRQISLEGSVKGIQNDLTKLSKYQASTSNTVSKLLEKSRKVSAHTRAVKERMDRQCAQVKRLENNHAQLLRRNHFKVLIFQEENEIPASVFVKQPVSGAVEGKEELPDENKSLEETLHTVDLSSDDDLPHDEEALEDSAEEKVEESRAEKIKRSSLKKVDSLKKAFSRQNIEKKMNKLGTKIVSVERREKIKKSLTSNHQKISSGKSSPFKVSPLTFGRKKVREGESHAENETKSEDLPSSEQMPNDQEEESFAEGHSEASLASALVEGEIAEEAAEKATSRGSNSGMDSNIDLTIVEDEEEESVALEQAQKVRYEGSYALTSEEAERSDGDPVQPAVLQVHQTS
How did the binding [1] turn out when B1 was run?
The binding was “binds”.

And the binding [2]?
Its binding is “binds”.

And the binding [3]?
Its binding is “binds”.

What about the binding [4] of the same binder?
The binding was “binds”.

What about the binding [5] of the same binder?
Its binding is “no binding”.

B2: cavin2-GFP (cell-free) (protein, UniProt O95810 1-425)
chain: MGEDAAQAEKFQHPGSDMRQEKPSSPSPMPSSTPSPSLNLGNTEEAIRDNSQVNAVTVLTLLDKLVNMLDAVQENQHKMEQRQISLEGSVKGIQNDLTKLSKYQASTSNTVSKLLEKSRKVSAHTRAVKERMDRQCAQVKRLENNHAQLLRRNHFKVLIFQEENEIPASVFVKQPVSGAVEGKEELPDENKSLEETLHTVDLSSDDDLPHDEEALEDSAEEKVEESRAEKIKRSSLKKVDSLKKAFSRQNIEKKMNKLGTKIVSVERREKIKKSLTSNHQKISSGKSSPFKVSPLTFGRKKVREGESHAENETKSEDLPSSEQMPNDQEEESFAEGHSEASLASALVEGEIAEEAAEKATSRGSNSGMDSNIDLTIVEDEEEESVALEQAQKVRYEGSYALTSEEAERSDGDPVQPAVLQVHQTS
How did the binding [6] turn out when B2 was run?
The binding was “binds”.

B3: cavin3-Cherry-myc (cell-free) (natural protein, UniProt Q969G5 1-261, looked up)
chain: MRESALERGPVPEAPAGGPVHAVTVVTLLEKLASMLETLRERQGGLARRQGGLAGSVRRIQSGLGALSRSHDTTSNTLAQLLAKAERVSSHANAAQERAVRRAAQVQRLEANHGLLVARGKLHVLLFKEEGEVPASAFQKAPEPLGPADQSELGPEQLEAEVGESSDEEPVESRAQRLRRTGLQKVQSLRRALSGRKGPAAPPPTPVKPPRLGPGRSAEAQPEAQPALEPTLEPEPPQDTEEDPGRPGAAEEALLQMESVA
notes: cavin3 / SRBC; ORF in a Gateway DNA template for cell-free expression; also called SRBC; cavin3-myc; source: Leishmania tarentolae cell-free system (LTE), in vitro translated, not purified; not shown: mCherry, C-terminal, kept; Myc, C-terminal, kept
How did the binding [7] turn out when B3 was run?
Its binding is “binds”.

What about the binding [3] of the same binder?
Its binding is “binds”.

B4: cavin2-Cherry (protein, UniProt O95810 1-425)
chain: MGEDAAQAEKFQHPGSDMRQEKPSSPSPMPSSTPSPSLNLGNTEEAIRDNSQVNAVTVLTLLDKLVNMLDAVQENQHKMEQRQISLEGSVKGIQNDLTKLSKYQASTSNTVSKLLEKSRKVSAHTRAVKERMDRQCAQVKRLENNHAQLLRRNHFKVLIFQEENEIPASVFVKQPVSGAVEGKEELPDENKSLEETLHTVDLSSDDDLPHDEEALEDSAEEKVEESRAEKIKRSSLKKVDSLKKAFSRQNIEKKMNKLGTKIVSVERREKIKKSLTSNHQKISSGKSSPFKVSPLTFGRKKVREGESHAENETKSEDLPSSEQMPNDQEEESFAEGHSEASLASALVEGEIAEEAAEKATSRGSNSGMDSNIDLTIVEDEEEESVALEQAQKVRYEGSYALTSEEAERSDGDPVQPAVLQVHQTS
How did the binding [8] turn out when B4 was run?
The binding was “binds”.

And the binding [9]?
Its binding is “binds”.

B5: cavin3-Cherry (natural protein, UniProt Q969G5 1-261, looked up)
chain: MRESALERGPVPEAPAGGPVHAVTVVTLLEKLASMLETLRERQGGLARRQGGLAGSVRRIQSGLGALSRSHDTTSNTLAQLLAKAERVSSHANAAQERAVRRAAQVQRLEANHGLLVARGKLHVLLFKEEGEVPASAFQKAPEPLGPADQSELGPEQLEAEVGESSDEEPVESRAQRLRRTGLQKVQSLRRALSGRKGPAAPPPTPVKPPRLGPGRSAEAQPEAQPALEPTLEPEPPQDTEEDPGRPGAAEEALLQMESVA
notes: construct cloned as described in Hill et al. (2008); The only hint on species is the keyword 'human'; the cDNA may be of mouse (surmise); also called SRBC; C3-C; source: MCF-7 or MDCK cells, transfected (Lipofectamine 2000), in supernatant of mechanically lysed cells
Which binding [10] does the source give for B5 here?
The binding was “no binding”.

What about the binding [11] of the same binder?
Its binding is “no binding”.

And the binding [8]?
Its binding is “binds”.

What about the binding [9] of the same binder?
Its binding is “binds”.

What about the binding [12] of the same binder?
Its binding is “no binding”.

What about the binding [13] of the same binder?
Its binding is “binds”.

B6: cavin2-GFP (natural protein, UniProt O95810 1-425, looked up)
chain: MGEDAAQAEKFQHPGSDMRQEKPSSPSPMPSSTPSPSLNLGNTEEAIRDNSQVNAVTVLTLLDKLVNMLDAVQENQHKMEQRQISLEGSVKGIQNDLTKLSKYQASTSNTVSKLLEKSRKVSAHTRAVKERMDRQCAQVKRLENNHAQLLRRNHFKVLIFQEENEIPASVFVKQPVSGAVEGKEELPDENKSLEETLHTVDLSSDDDLPHDEEALEDSAEEKVEESRAEKIKRSSLKKVDSLKKAFSRQNIEKKMNKLGTKIVSVERREKIKKSLTSNHQKISSGKSSPFKVSPLTFGRKKVREGESHAENETKSEDLPSSEQMPNDQEEESFAEGHSEASLASALVEGEIAEEAAEKATSRGSNSGMDSNIDLTIVEDEEEESVALEQAQKVRYEGSYALTSEEAERSDGDPVQPAVLQVHQTS
notes: cavin2 / SDPR (serum deprivation response protein); construct cloned as described in Hill et al. (2008); The only hint on species is the keyword 'human'; the cDNA may be of mouse (surmise); also called SDPR; serum deprivation response protein; source: MCF-7 or MDCK cells, transfected (Lipofectamine 2000), in supernatant of mechanically lysed cells
How did the binding [12] turn out when B6 was run?
The binding was “binds”.
